Laboratory results: PMC7693105
Results are given in words; binding and its absence hold for the method and conditions named. In cells and extracts the contact can be indirect. Some results given as binding are weak or reduced against the parent protein; the word gives no strength.

By UniProt entry, the sequences of proteins in these tests, tags left out. Where a name states a change or a piece, a line headed by the entry shows the natural chain unless it says otherwise.
UniProt P10275: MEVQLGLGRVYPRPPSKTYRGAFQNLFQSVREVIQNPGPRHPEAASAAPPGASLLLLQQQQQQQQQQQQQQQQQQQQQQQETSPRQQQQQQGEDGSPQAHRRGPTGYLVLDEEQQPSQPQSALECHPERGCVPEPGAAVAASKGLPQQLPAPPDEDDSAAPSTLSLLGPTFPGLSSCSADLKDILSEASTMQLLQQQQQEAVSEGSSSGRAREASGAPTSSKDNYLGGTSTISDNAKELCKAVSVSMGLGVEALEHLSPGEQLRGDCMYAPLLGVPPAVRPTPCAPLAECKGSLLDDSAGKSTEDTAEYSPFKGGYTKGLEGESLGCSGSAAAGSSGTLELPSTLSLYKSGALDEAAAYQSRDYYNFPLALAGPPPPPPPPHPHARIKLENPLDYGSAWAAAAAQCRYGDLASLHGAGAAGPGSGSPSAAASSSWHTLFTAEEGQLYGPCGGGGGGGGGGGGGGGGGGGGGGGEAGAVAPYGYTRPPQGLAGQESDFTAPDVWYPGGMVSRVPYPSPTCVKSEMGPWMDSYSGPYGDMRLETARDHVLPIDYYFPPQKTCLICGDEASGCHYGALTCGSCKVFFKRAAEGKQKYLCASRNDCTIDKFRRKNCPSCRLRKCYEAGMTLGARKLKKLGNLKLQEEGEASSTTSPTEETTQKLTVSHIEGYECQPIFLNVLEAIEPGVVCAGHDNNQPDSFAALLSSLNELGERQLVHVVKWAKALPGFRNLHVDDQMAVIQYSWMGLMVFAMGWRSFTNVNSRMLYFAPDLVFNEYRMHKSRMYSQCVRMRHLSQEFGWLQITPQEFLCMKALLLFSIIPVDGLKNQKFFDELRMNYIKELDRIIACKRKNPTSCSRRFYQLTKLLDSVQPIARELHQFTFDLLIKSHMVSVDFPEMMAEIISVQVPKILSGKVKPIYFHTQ
UniProt O43791: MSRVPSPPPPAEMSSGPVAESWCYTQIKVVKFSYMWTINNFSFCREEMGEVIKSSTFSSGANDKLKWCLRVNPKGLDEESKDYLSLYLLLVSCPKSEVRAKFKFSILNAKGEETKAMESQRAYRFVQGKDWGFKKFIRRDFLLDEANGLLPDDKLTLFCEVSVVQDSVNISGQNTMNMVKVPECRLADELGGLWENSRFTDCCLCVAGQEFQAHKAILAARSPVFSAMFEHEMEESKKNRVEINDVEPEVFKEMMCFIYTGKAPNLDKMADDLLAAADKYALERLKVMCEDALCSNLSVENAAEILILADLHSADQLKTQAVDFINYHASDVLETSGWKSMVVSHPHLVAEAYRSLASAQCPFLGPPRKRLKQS

How the values were obtained:
[1] = biological target: androgen receptor (AR) on beads (UniProt P10275); assay: pull-down; AR on beads (AR immune complex isolated from cells) incubated with 6x-His-SPOP (WT and 3A), binding analyzed; only the binder purified
[2] = biological target: T1, Aurora kinase A (AURKA) (human (endogenous in C4-2)) (UniProt O14965); assay: co-IP; endogenous SPOP or AURKA immunoprecipitated from C4-2 cells, partner detected in the immune complex; IgG IP as negative control
T1 sequence: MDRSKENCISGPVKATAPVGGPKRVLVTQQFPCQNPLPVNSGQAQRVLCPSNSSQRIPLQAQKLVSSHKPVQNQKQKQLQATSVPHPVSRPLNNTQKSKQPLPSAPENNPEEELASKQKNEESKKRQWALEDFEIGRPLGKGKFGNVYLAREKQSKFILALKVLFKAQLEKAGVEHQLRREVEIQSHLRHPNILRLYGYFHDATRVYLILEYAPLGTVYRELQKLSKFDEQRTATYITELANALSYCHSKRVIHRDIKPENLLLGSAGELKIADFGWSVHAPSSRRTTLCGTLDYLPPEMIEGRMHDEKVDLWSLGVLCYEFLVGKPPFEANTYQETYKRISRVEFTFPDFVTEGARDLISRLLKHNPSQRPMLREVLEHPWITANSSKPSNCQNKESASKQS

[3] = biological target: HA-tagged 3A-SPOP (S33A, T56A, S105A) expressed in C4-2 cells (UniProt O43791); assay: co-IP; SPOP immunoprecipitated from C4-2, SPOP-C4-2 and 3A-SPOP-C4-2 cells, AR detected by immunoblotting; IgG IP as control
[4] = biological target: HA-tagged wild-type SPOP expressed in C4-2 cells (UniProt O43791); assay: as above
[5] = biological target: Speckle-type POZ (pox virus and zinc finger) protein (SPOP), endogenous (human (endogenous in C4-2)) (UniProt O43791); assay: as above
[6] = biological target: Speckle-type POZ (pox virus and zinc finger) protein (SPOP), endogenous (human (endogenous in C4-2)) (UniProt O43791); assay: co-IP; endogenous SPOP or AURKA immunoprecipitated from C4-2 cells, partner detected in the immune complex; IgG IP as negative control

## 6x-His-tagged 3A-SPOP (S33A, T56A, S105A triple mutant) (from UniProt O43791 1-374)
[1]
  binding: binds

## 6x-His-tagged wild-type SPOP (from UniProt O43791 1-374)
[1]
  binding: binds

## Speckle-type POZ (pox virus and zinc finger) protein (SPOP), endogenous (from UniProt O43791 1-374)
[2]
  binding: binds

## androgen receptor (AR), endogenous in C4-2 cells (from UniProt P10275 1-920)
[3]
  binding: binds
[4]
  binding: binds
[5]
  binding: binds

B1: Aurora kinase A (AURKA) (enzyme, UniProt O14965 1-403)
chain: T1 sequence
[6]
  binding: binds
